The target in assay [1] is MYC-tagged SMURF2, catalytically inactive Cys716Gly mutant (human) (UniProt Q9HAU4). The assay is described as follows: affinity purification with mass spectrometry; MYC-SMURF2 (WT or CG) expressed in HEK293T, 26 h after transfection; 1% NP-40 lysate, pre-cleared; anti-MYC antibody (9E10) and Protein-G Sepharose; eluted with 8 M urea; LC-MS/MS; empty MYC vector as control; two independent MS analyses.

Chains of the proteins cited; added tags and fusions are not shown. Lines headed by an entry give the natural chain unless they say otherwise; changes in a name come on top. A line that says so, or that is headed by a name, gives the form on record, which may keep a tag or linker.
UniProt Q9HAU4: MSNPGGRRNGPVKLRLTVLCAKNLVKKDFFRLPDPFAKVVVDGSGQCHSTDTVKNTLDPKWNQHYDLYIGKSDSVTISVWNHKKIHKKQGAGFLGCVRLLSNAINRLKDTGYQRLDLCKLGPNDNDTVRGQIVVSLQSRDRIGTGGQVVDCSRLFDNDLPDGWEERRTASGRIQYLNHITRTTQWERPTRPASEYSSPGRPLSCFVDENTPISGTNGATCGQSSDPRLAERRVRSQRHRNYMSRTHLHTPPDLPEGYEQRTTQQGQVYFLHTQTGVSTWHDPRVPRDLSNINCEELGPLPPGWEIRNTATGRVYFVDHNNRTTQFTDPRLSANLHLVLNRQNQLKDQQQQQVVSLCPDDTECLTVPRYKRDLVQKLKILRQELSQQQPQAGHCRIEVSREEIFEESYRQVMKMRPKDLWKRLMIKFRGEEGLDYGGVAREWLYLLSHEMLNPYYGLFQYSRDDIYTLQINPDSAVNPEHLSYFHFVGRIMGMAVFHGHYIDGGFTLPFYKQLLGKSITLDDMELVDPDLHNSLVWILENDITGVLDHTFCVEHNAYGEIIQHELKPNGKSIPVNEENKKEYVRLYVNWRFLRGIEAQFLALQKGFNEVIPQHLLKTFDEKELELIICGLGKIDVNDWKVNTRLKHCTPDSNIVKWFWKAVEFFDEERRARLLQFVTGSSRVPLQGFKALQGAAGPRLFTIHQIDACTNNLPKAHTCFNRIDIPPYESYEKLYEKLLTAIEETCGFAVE
MYC-tagged SMURF2, catalytically inactive Cys716Gly mutant (Q9HAU4, form named): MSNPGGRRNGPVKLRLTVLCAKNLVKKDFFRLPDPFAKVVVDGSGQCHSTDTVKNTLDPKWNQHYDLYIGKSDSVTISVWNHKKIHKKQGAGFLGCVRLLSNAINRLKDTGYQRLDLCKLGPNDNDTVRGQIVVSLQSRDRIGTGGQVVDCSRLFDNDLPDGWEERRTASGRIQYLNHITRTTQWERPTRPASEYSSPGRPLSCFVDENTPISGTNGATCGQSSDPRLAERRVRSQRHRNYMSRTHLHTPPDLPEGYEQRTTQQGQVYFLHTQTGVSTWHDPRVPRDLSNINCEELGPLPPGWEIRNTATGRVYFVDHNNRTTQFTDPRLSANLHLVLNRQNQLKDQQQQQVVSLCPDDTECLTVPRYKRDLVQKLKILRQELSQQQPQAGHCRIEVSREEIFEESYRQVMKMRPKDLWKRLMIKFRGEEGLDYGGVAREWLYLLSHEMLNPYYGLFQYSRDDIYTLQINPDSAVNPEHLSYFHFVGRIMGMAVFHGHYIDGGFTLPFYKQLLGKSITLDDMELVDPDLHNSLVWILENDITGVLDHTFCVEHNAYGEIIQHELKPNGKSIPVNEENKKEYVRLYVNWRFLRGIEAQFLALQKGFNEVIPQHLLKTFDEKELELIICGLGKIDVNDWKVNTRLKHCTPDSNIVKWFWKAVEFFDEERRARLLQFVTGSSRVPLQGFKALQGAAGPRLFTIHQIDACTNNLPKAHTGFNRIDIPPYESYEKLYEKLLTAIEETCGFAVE
UniProt P63104: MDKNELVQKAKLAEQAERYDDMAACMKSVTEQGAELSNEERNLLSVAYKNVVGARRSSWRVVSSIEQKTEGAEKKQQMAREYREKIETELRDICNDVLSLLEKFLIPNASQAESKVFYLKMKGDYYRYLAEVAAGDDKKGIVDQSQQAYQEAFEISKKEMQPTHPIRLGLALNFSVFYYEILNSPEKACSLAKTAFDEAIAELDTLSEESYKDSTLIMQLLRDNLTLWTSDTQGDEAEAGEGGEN
UniProt P62258: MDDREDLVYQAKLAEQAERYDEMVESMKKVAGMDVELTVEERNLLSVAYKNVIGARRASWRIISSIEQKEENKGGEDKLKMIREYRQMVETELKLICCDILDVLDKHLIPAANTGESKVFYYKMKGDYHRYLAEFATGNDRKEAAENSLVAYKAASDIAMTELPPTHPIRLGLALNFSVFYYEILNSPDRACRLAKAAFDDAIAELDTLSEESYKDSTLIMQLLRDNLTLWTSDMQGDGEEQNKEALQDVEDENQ

In assay [2] the target is MYC-tagged SMURF2, wild-type (human) (UniProt Q9HAU4). Described as above.

These are yes or no findings as the source states them, for the method shown. Binding seen in cells or lysates may run through a third protein. Here binding means that the protein was enriched with, or labelled near, the bait; the list need not be complete.

As to “14-3-3 Zeta/delta (from UniProt P63104 1-245)”, the binding entry in assay [1] and in assay [2] was “binds” in each case.

“14-3-3 epsilon (from UniProt P62258 1-255)”: the binding entry in assay [1] and in assay [2] was “binds” in each case.

B1: 14-3-3 gamma (protein, UniProt P61981 1-247)
chain: MVDREQLVQKARLAEQAERYDDMAAAMKNVTELNEPLSNEERNLLSVAYKNVVGARRSSWRVISSIEQKTSADGNEKKIEMVRAYREKIEKELEAVCQDVLSLLDNYLIKNCSETQYESKVFYLKMKGDYYRYLAEVATGEKRATVVESSEKAYSEAHEISKEHMQPTHPIRLGLALNYSVFYYEIQNAPEQACHLAKTAFDDAIAELDTLNEDSYKDSTLIMQLLRDNLTLWTSDQQDDDGGEGNN
Consider B1, for which the binding entry in assay [1] and in assay [2] was “binds” each time.

B2: 14-3-3 theta (protein, UniProt P27348 1-245)
chain: MEKTELIQKAKLAEQAERYDDMATCMKAVTEQGAELSNEERNLLSVAYKNVVGGRRSAWRVISSIEQKTDTSDKKLQLIKDYREKVESELRSICTTVLELLDKYLIANATNPESKVFYLKMKGDYFRYLAEVACGDDRKQTIDNSQGAYQEAFDISKKEMQPTHPIRLGLALNFSVFYYEILNNPELACTLAKTAFDEAIAELDTLNEDSYKDSTLIMQLLRDNLTLWTSDSAGEECDAAEGAEN
For the molecule B2, the binding entry in assay [1] and in assay [2] was “binds” throughout.
